According to patent US9492464B2, “Composition for preventing or treating side effect of steroid in subject comprising acetylsalicylic acid and use thereof” (Samsung Electronics Co., Ltd., priority 2014, dated 2016):
At least one structure is not confirmed: it was looked up by name or label, or the drawing left a doubt.

Assays:
Assay type in all cases: cell-based, mouse
MuRF-1 = experiment: Real time PCR of MuRF-1 mRNA in differentiated C2C12 cells; conditions: 2 μM dexamethasone only, 24 hours, normalized to GAPDH, FIG. 3B
Experimental: (§1) As described above with reference to Example 1(2), C2C12 cells were completely differentiated into muscle cells, and 4 ml of a fresh culture medium including 400 μM of Aspirin (Sigma Aldrich) was added thereto, and then the cells were cultured for 24 hours. 2 μM of dexamethasone (Sigma Aldrich) was added to the cultured cells, and the cells were cultured for 24 hours. The culture medium was removed therefrom, and the cells were collected. A negative control group was not treated with acetylsalicylic acid and dexamethasone.
(§2) A Trizol reagent (Invitrogen) was added to the collected cells, and total RNA was separated therefrom according to manufacturer's protocols. Complementary DNA (cDNA) was synthesized from the separated total RNA by using a reverse transcriptase. Amounts of mRNA of Atrogin-1 and MuRF-1 were quantified using a real time PCR device (MyiQPCR instrument, BioRad) that is a device measuring SYBR Green. The results were normalized with respect to an amount of GAPDH mRNA. […]
(§3) Values obtained via amplification were normalized by GAPDH gene, and relative expression levels of mRNA of Atrogin-1 and MURF-1 were quantified. The quantified relative expression levels (arbitrary unit (AU)) of mRNA of Atrogin-1 and MURF-1 are illustrated in FIGS. 3A and 3B, respectively, […]

Atrogin-1 = experiment: Real time PCR of Atrogin-1 mRNA in differentiated C2C12 cells; conditions: 2 μM dexamethasone only, 24 hours, normalized to GAPDH, FIG. 3A
Experimental: as §1, §2, §3

C2C12 cells = experiment: Muscle fiber diameter of differentiated C2C12 cells from microscopic image; conditions: 2 μM dexamethasone only, 24 hours, without Aspirin, FIG. 2

C[C@@H]1C[C@H]2[C@@H]3CCC4=CC(=O)C=C[C@]4(C)[C@@]3(F)[C@@H](O)C[C@]2(C)[C@@]1(O)C(=O)CO [dexamethasone]
expression of mRNA of MuRF1 (MuRF-1): increased
expression of mRNA of Atrogin-1 (Atrogin-1): increased
diameter of the muscle fiber (C2C12 cells): reduced
